# Test results published in PMC3141039.
# Sequences of proteins named here, by UniProt entry; tags and fusion partners are left off. A change or cut given only in a name is not applied to a line headed by its entry.
# UniProt Q5SJ79: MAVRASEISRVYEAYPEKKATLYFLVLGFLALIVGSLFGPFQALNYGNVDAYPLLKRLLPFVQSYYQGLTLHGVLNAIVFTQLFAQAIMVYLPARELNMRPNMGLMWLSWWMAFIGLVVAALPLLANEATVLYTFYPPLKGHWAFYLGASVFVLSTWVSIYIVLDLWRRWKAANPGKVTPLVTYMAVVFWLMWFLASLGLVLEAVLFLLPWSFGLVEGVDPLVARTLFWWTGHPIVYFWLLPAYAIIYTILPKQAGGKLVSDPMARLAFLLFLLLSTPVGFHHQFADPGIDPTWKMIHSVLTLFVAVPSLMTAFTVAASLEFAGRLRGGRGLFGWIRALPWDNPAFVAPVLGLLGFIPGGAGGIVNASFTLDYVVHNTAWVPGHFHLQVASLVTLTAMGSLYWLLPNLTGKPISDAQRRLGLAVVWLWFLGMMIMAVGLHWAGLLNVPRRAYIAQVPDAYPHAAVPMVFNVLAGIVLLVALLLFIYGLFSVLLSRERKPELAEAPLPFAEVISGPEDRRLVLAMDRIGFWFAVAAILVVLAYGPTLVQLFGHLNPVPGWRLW
# UniProt Q5SJ80: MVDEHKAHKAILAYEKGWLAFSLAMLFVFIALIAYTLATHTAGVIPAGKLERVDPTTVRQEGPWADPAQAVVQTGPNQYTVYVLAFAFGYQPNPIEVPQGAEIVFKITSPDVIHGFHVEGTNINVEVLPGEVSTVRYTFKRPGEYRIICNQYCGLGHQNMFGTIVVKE
# Results are given in words; binding and its absence hold for the method and conditions named. Binding calls can cover weak binding; strength is not graded here.
# Biological target: ba3 cytochrome c oxidase subunit I, A120F mutant (Thermus thermophilus) (UniProt Q5SJ79)
# Assay: crystal structure; three-subunit enzyme crystallised in lipidic cubic phase (monoolein), 40-45% PEG 400, 1.0-1.6 M NaCl, 100 mM sodium cacodylate pH 5.5-6.5, 20°C; refined at 1.8 Å, space group C2, one molecule per asymmetric unit; both purified
substance,measurement,value
ba3 cytochrome c oxidase subunit II (from UniProt Q5SJ80),binding,binds
